Assay results from PubChem BioAssay AID493014 (National Center for Advancing Translational Sciences (NCATS), 2011).
The other results are listed elsewhere or left out. Shown are side measurements of this screen, not its main read-out; they come without a call. Compounds called inactive in the main read-out are mostly missing here. The note in brackets gives the kind of curve behind each potency; many fits are weak.

Assay: qHTS Assay to Find Inhibitors of Chronic Active B-Cell Receptor Signaling
Details: ABC-DLBCL IkBa-CBG/CBR reporter, luminescence ratio (green luciferase fused to IkBa over red control in TMD8 lymphoma cells), 4 h
Method in brief: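 Concentration-response series (up to 46 uM) were applied to TMD8 dual-reporter cells for 4 h at 37C with doxycycline. Green/red ratio, after filter-overlap correction, defined %Activity; red signal alone was normalised to basal cells and zero luminescence.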

[1] = measured here: CBR red luminescence, cell number
[2] = measured here: IkBa-CBG green luminescence

| Compound | AC50 [1] | AC50 [2] |
| --- | --- | --- |
| CC1CCCC(C)N1CC(O)COC1CCC(C(C)(C)C)CC1 (stereo not drawn) | 25.1 µM [falling, single point] | – |
| CN1CCN(c2ccc(NC(=O)c3ccc([N+](=O)[O-])o3)cc2Cl)CC1 | 12.6 µM [falling, partial curve, poor fit] | – |
| N#Cc1cccc(NC(=O)c2sc3nc4c(cc3c2N)N2CCC4CC2)c1 | 1.12 µM [falling, full curve, poor fit] | – |
| CCc1c(C2(O)CCCCC2)[nH]c2ccc(C(F)(F)F)cc12 | 22.4 µM [falling, partial curve, poor fit] | – |
| O=C1CC(N2CC=C(c3ccccc3)CC2)C(=O)N1c1ccc(F)cc1 (stereo not drawn) | 25.9 µM [falling, single point] | – |
| Oc1ccccc1/C=N/NP(=S)(c1ccccc1)c1ccccc1 | 15.8 µM [falling, single point] | – |
| CCNC(=O)NNC(=O)C1CC(c2cccnc2)=NO1 (stereo not drawn) | 35.5 µM [rising, single point] | – |
| CN(C)C(=O)Oc1cc(=O)n2c3c(cccc13)CCC2 | 0.00411 µM [rising, full curve, poor fit] | – |
| Cc1onc(-c2ccccc2Cl)c1C(=O)OCC(=O)c1ccc2c(c1)OCCO2 | 17.8 µM [falling, partial curve] | – |
| COc1cc2c(cc1O)[C@@H]1Cc3ccc(OC)c(O)c3CN1CC2 | 10.3 µM [rising, partial curve] | 20.6 µM [falling, single point] |
| CCc1cc2c(N3CCN(C)CC3)ncnc2s1 | 0.116 µM [rising, full curve] | – |
| C=Cn1ccnc1P(=S)(c1ccc(N(C)C)cc1)c1nccn1C=C | 6.31 µM [rising, single point] | – |
| Clc1ccc2c(c1)C(OC1CN3CCC1CC3)c1ccccc1CS2 (stereo not drawn) | 18.4 µM [falling, partial curve, poor fit] | – |
| N#CC1=C(N)C(C#N)(C#N)[C@H](c2ccncc2)[C@H]2CN(C(=O)OCc3ccccc3)CC=C12 | 20.6 µM [falling, single point] | – |
| CCCn1cc2c3c(cccc31)C1CC(C)CN(C)C1C2 (stereo not drawn) | 2.24 µM [rising, partial curve, poor fit] | – |
| Cn1cccc1/C=C1/C(=O)NC(=O)N(Cc2ccccc2)C1=O | 29.1 µM [rising, single point] | 25.9 µM [falling, single point] |
| COc1cc(C2c3cc4c(cc3CC3COC(=O)C32)OCO4)cc(OC)c1OC (stereo not drawn) | 10.3 µM [rising, partial curve] | 11.6 µM [falling, partial curve] |
| CC(=O)N1N=C(c2c(O)n(C)c(=O)n(C)c2=O)CC1c1ccccc1 (stereo not drawn) | 35.5 µM [falling, single point] | – |
| CCOC(=O)c1c(C)[nH]c(C(=O)OCC(=O)N2c3ccccc3CC2C)c1C (stereo not drawn) | 35.5 µM [falling, single point] | – |
| CN1CCN(C(=S)SCC(=O)Nc2ccc(Cl)cc2C(=O)c2ccccc2)CC1 | 25.9 µM [falling, partial curve, poor fit] | – |

Quoted at random: two records from the list

| Compound | AC50 [1] | AC50 [2] |
| --- | --- | --- |
| Oc1ccccc1/C=N/NP(=S)(c1ccccc1)c1ccccc1 | 15.8 µM [falling, single point] | – |
| Cc1onc(-c2ccccc2Cl)c1C(=O)OCC(=O)c1ccc2c(c1)OCCO2 | 17.8 µM [falling, partial curve] | – |

Continued.

| Compound | AC50 [1] | AC50 [2] |
| --- | --- | --- |
| CC/C(C)=N/NC(=O)c1[nH]c2ccc(C)cc2c1-c1ccccc1 | 7.94 µM [rising, partial curve] | – |
| Cc1ccc(/C=C(/C#N)C(=O)NC(=O)Oc2ccccc2)cc1 | 29.1 µM [falling, single point] | – |
| C/C(=N\NP(=S)(c1ccccc1)c1ccccc1)c1ccc(O)cc1O | 3.98 µM [falling, partial curve, poor fit] | – |
| Cc1ccccc1C(O)(Cc1ccccc1)C1CN2CCC1CC2 (stereo not drawn) | 11.6 µM [falling, single point] | – |
| C/C1=C\[C@@H](C)C/C=C/[C@H]2[C@@H]3O[C@]3(C)[C@@H](C)[C@H]3[C@H](Cc4c[nH]c5ccccc45)NC(=O)[C@]32C(=O)/C=C/C(=O)[C@@H]1O | 35.5 µM [falling, single point] | – |
| O=C(COc1ccc2ccccc2c1)N1CCN(Cc2c[nH]c3ccccc23)CC1 | 13 µM [falling, partial curve, poor fit] | – |
| O=C(Cn1c(=O)oc2ccccc21)Nc1ccc(F)cc1 | 5.01 µM [falling, full curve] | – |
| COc1ccc(N2C(=O)NC(=O)/C(=C\c3cn(C)c4ccccc34)C2=O)cc1 | 4.47 µM [rising, single point] | – |
| Nc1ncnc2c1ncn2C1OC(COP(=O)(O)O)C(O)C1O (stereo not drawn) | 10 µM [rising, partial curve] | – |
| Cc1ccc(-n2nc(C)c(C3C(C#N)=C(N)Oc4c3c(=O)oc3ccccc43)c2Cl)cc1 (stereo not drawn) | 23.1 µM [falling, single point] | – |
| COC(=O)C1=C(c2ccccc2)C[C@@H]2CC[C@H]1N2C | 1.84 µM [falling, partial curve] | – |
| Cc1ccc2c(c1)C1CN(C)CCC1N2C(=O)CCCN1C(=O)c2cccc3cccc(c23)C1=O (stereo not drawn) | 1.58 µM [rising, full curve, poor fit] | – |
| C[C@@H]1O[C@@H](O[C@H]2C[C@@H](O)[C@]3(CO)[C@H]4[C@H](O)C[C@]5(C)[C@@H](C6COC(=O)C6)CC[C@]5(O)[C@@H]4CC[C@]3(O)C2)[C@H](O)[C@H](O)[C@H]1O (stereo partly drawn) | 1.78 µM [falling, full curve, poor fit] | 23.1 µM [rising, partial curve, poor fit] |
| Cc1ccccc1OC(=O)n1c(=S)oc2cc(Cl)ccc21 | 18.4 µM [rising, single point] | – |
| CC(C)[C@H]1C(=O)O[C@H](C(C)C)C(=O)N(C)[C@@H](C(C)C)C(=O)O[C@H](C(C)C)C(=O)N(C)[C@@H](C(C)C)C(=O)O[C@H](C(C)C)C(=O)N1C | 4.47 µM [falling, full curve, poor fit] | – |
| O=C(/C=C/c1ccco1)NC(=S)Nc1ccccc1O | 11.2 µM [falling, partial curve] | – |
| O=c1[nH]c2ccccc2n1CCCN1CCC(n2c(=O)[nH]c3cc(Cl)ccc32)CC1 | 7.08 µM [falling, partial curve, poor fit] | – |
| CCCCn1c(=O)c(C(=O)Nc2nnc(C(C)C)s2)c(O)c2ccccc21 | 0.447 µM [falling, full curve, poor fit] | – |
| CN1C2CCC1/C(=C/c1ccccn1)C(=O)/C2=C\c1ccccn1 | 2.59 µM [falling, full curve] | – |
| O=C1C=C2C=C[C@H]3C[C@]2(O1)[C@@H]1CCCCN13 | 20.6 µM [falling, single point] | – |

Structural class, the entries above with a carbonyl joined to an NH by a bond outside any ring

| Compound | AC50 [1] | AC50 [2] |
| --- | --- | --- |
| CN1CCN(c2ccc(NC(=O)c3ccc([N+](=O)[O-])o3)cc2Cl)CC1 | 12.6 µM [falling, partial curve, poor fit] | – |
| N#Cc1cccc(NC(=O)c2sc3nc4c(cc3c2N)N2CCC4CC2)c1 | 1.12 µM [falling, full curve, poor fit] | – |
| CCNC(=O)NNC(=O)C1CC(c2cccnc2)=NO1 (stereo not drawn) | 35.5 µM [rising, single point] | – |
| CN1CCN(C(=S)SCC(=O)Nc2ccc(Cl)cc2C(=O)c2ccccc2)CC1 | 25.9 µM [falling, partial curve, poor fit] | – |
| CC/C(C)=N/NC(=O)c1[nH]c2ccc(C)cc2c1-c1ccccc1 | 7.94 µM [rising, partial curve] | – |
| Cc1ccc(/C=C(/C#N)C(=O)NC(=O)Oc2ccccc2)cc1 | 29.1 µM [falling, single point] | – |
| O=C(Cn1c(=O)oc2ccccc21)Nc1ccc(F)cc1 | 5.01 µM [falling, full curve] | – |
| O=C(/C=C/c1ccco1)NC(=S)Nc1ccccc1O | 11.2 µM [falling, partial curve] | – |
| CCCCn1c(=O)c(C(=O)Nc2nnc(C(C)C)s2)c(O)c2ccccc21 | 0.447 µM [falling, full curve, poor fit] | – |

Further compounds follow:

| Compound | AC50 [1] | AC50 [2] |
| --- | --- | --- |
| CCCCOCCCn1c(N)c(C(=O)OCCOC)c2nc3ccccc3nc21 | – | 35.5 µM [falling, partial curve, poor fit] |
| CN(C)P(=O)(C(Cl)=C(N1CCCCC1)N1CCCCC1)N(C)C | 3.16 µM [rising, partial curve, poor fit] | – |
| COc1cccc(C(=O)C2CCCN(Cc3cccc4c3OCO4)C2)c1 (stereo not drawn) | 35.5 µM [falling, single point] | – |
| O=C(Cc1csc(Nc2nc(=S)[nH]c3ccccc23)n1)NCCCN1CCN(c2ccccc2F)CC1 | 11.2 µM [falling, partial curve, poor fit] | – |
| O=C1NC(=O)N(c2ccccc2)C(=O)/C1=C\C=C\c1ccccc1 | 35.5 µM [falling, single point] | – |
| Cn1c(=O)oc2cc(S(=O)(=O)NCc3ccccc3)ccc21 | 0.116 µM [falling, full curve, poor fit] | – |
| CCN(CC)CCOC(=O)c1ccc(N=Cc2c(O)[nH]c(=O)[nH]c2=O)cc1 | 3.55 µM [rising, partial curve] | – |
| CC(C)N(CC(=O)Nc1ccc(Cl)cc1C(F)(F)F)C(=O)CCl | 10 µM [falling, partial curve] | – |
| COC(=O)C(O)(c1ccc(NC(=S)NC(=O)c2ccc(Cl)cc2Cl)c(C)c1)C(F)(F)F (stereo not drawn) | 18.4 µM [falling, single point] | – |
| COc1ccccc1N(CC(=O)NC1CCCC1)C(=O)c1cnn(C(C)C)c1 | 23.1 µM [falling, single point] | – |
| Cc1cc(C)n(-c2ccc(NN=C(C#N)C#N)cc2)n1 | 15.8 µM [falling, partial curve, poor fit] | – |
| c1ccc2sc(N3CCNCC3)nc2c1 | 12.6 µM [rising, partial curve, poor fit] | – |
| C[C@]12CCC3C(CC[C@H]4C[C@H](O)CC[C@]34C)C1CC(=O)[C@@H]2O (stereo partly drawn) | 2.06 µM [rising, partial curve, poor fit] | – |
| O=C(Nc1cccc(Cl)c1)OC1CN2CCC1CC2 (stereo not drawn) | 0.398 µM [rising, full curve, poor fit] | – |
| CC(=NCC1CCCO1)c1c(O)n(-c2ccc(Cl)cc2)c(=O)[nH]c1=O (stereo not drawn) | 0.291 µM [rising, full curve, poor fit] | – |
| COc1ccc(N2C(=O)/C(=C/c3cccs3)C(=O)NC2=S)cc1 | 6.31 µM [rising, partial curve, poor fit] | – |
| Cc1nc2ccccc2n1C1CCN(Cc2nnnn2CCc2ccccc2)CC1 | 0.794 µM [rising, full curve, poor fit] | – |
| CC(=O)OC(C)(C)/C=C/C(=O)[C@](C)(O)[C@H]1[C@H](O)C[C@@]2(C)[C@@H]3CC=C4[C@H](C[C@H](O)C(=O)C4(C)C)[C@]3(C)C(=O)C[C@]12C | 6.51 µM [falling, partial curve] | – |
| O=C1NC(=O)N(c2ccccc2)C(=O)/C1=C\c1ccccc1[N+](=O)[O-] | 35.5 µM [falling, single point] | – |
